The values below come from EP3002287B1, “Thiochromeno[2,3-c]quinolin-12-one derivatives and their use as topoisomerase inhibitors” (National Defense Medical Center, priority 2014, dated 2016).

The data set has as its system 60 cell lines. Description: NCI in vitro 60-cell drug screen (SRB assay), whole panel statistics. The conditions noted are these: 10^-5 molar concentration, 48 hours; for Growth percent, Delta: delta over the cell panel; for Growth percent, Range: range over the cell panel. (In SRB staining, fixed cells bind dye roughly in proportion to their protein.)

For the compound `O=C(O)c1c(Sc2ccc(Cl)cc2)c(O)nc2ccccc12` [Compound 2, 3-((4-Chlorophenyl)thio)-2-hydroxyquinoline-4-carboxylic acid], the “Growth percent, Delta” value is 33.20% and the “Growth percent, Range” value stood at 55.29%.
The matching figures for `O=c1c2cc(Cl)ccc2sc2c(O)nc3ccccc3c12` [Compound 4, 10-Chloro-6-hydroxy-12H-thiochromeno[2,3-c]quinolin-12-one]: 30.54% and 50.31%.
The matching figures for `CN1CCN(c2nc3ccccc3c3c(=O)c4cc(Cl)ccc4sc23)CC1` [Compound 8, 10-Chloro-6-(4-methylpiperazin-1-yl)-12H-thiochromeno[2,3-c]q uinolin-12-one]: 68.64% and 92.74%.
The matching figures for `CN(C)c1nc2ccccc2c2c(=O)c3cc(Cl)ccc3sc12` [Compound 6, 10-Chloro-6-dimethylamino-12H-thiochromeno[2,3-c]quinolin-12-one]: 65.30% and 93.93%.
Take `O=c1c2cc(Cl)ccc2sc2c(N3CCN(Cc4ccccc4)CC3)nc3ccccc3c12` [Compound 11, 6-(4-Benzylpiperazin-1-yl)-10-chloro-12H-thiochromeno[2,3-c]q uinolin-12-one]: the “Growth percent, Delta” value is 31.28% and the “Growth percent, Range” value was 60.08%.
The corresponding values for `O=c1c2cc(Cl)ccc2sc2c(N3CCOCC3)nc3ccccc3c12` [Compound 13, 10-Chloro-6-morpholino-12H-thiochromeno[2,3-c]quinolin-12-one] are 50.85% and 79.17%.
Take `O=c1c2cc(Cl)ccc2sc2c(N3CCN(CCO)CC3)nc3ccccc3c12` [Compound 10, 10-Chloro-6-(4-(2-hydroxyethyl)piperazin-1-yl)-12H-thiochrom eno[2,3-c]quinolin-12one]: the “Growth percent, Delta” value is 48.59% and the “Growth percent, Range” value came to 83.73%.
For `O=c1c2cc(Cl)ccc2sc2c(N3CCN(c4ccccc4)CC3)nc3ccccc3c12` [Compound 12, 10-Chloro-6-(4-phenylpiperazin-1-yl)-12H-thiochromeno[2,3-c] quinolin-12-one], the “Growth percent, Delta” value turned out to be 35.45% and the “Growth percent, Range” value worked out at 60.10%.
For `O=c1c2ccc(Cl)cc2sc2c(Cl)nc3ccccc3c12` [Compound 3, 6,9-Dichloro-12H-thiochromeno[2,3-c]quinolin-12-one], the “Growth percent, Delta” value was determined as 32.05% and the “Growth percent, Range” value is listed as 57.22%.
The corresponding values for `COc1nc2ccccc2c2c(=O)c3cc(Cl)ccc3sc12` [Compound 5, 10-Chloro-6-methoxy-12H-thiochromeno[2,3-c]quinolin-12-one] are 39.82% and 61.02%.
